Paper doi:10.1101/2024.09.19.613872
Results are given in words; binding and its absence hold for the method and conditions named. In cells and extracts the contact can be indirect. Some binding calls cover weakened binding; strength is not graded here. Sequences can lack the tags named with a protein.

Target: C-terminally HA-tagged wild type human Ulk4 (human) (UniProt Q96C45)
Test: co-IP; HEK293T cells transfected with Fg-tagged and HA-tagged Ulk4 constructs; immunoprecipitation and western blot with the indicated antibodies; which tag was precipitated is not given

binding | Binder
binds | C-terminal fragment of Ulk4-EE from aa1004-aa1275, Flag-tagged (domain or fragment, UniProt Q96C45 1004-1275) VPAYALKLLVAMTEHNPEFERLVEESKLIPLIFEVTLEHQESILGNTMQSVIALLSNLVACKDSNMELLYEQGLVSHICNLLTETATLCLDVDNKNNNEMAAPLLFSLLDILHSMLTYTSGIVRLALQAQKSGSGEDPQAAEDLLLLNRPLTDLISLLIPLLPNEDPEIFDVSSKCLSILVQLYGGENPDSLSPENVEIFAHLLTSKEDPKEQKLLLRILRRMITSNEKHLESLKNAGSLLRALERLAPGSGSFADSAVAPLALEILQAVGH
binds | Flag-tagged Ulk4-EE-KR (human Ulk4 T1021E/T1023E/K1030R) (protein, UniProt Q96C45 1-1275) MENFILYEEIGRGSKTVVYKGRRKGTINFVAILCTDKCKRPEITNWVRLTREIKHKNIVTFHEWYETSNHLWLVVELCTGGSLKTVIAQDENLPEDVVREFGIDLISGLHHLHKLGILFCDISPRKILLEGPGTLKFSNFCLAKVEGENLEEFFALVAAEEGGGDNGENVLKKSMKSRVKGSPVYTAPEVVRGADFSISSDLWSLGCLLYEMFSGKPPFFSESISELTEKILCEDPLPPIPKDSSRPKASSDFINLLDGLLQRDPQKRLTWTRLLQHSFWKKAFAGADQESSVEDLSLSRNTMECSGPQDSKELLQNSQSRQAKGHKSGQPLGHSFRLENPTEFRPKSTLEGQLNESMFLLSSRPTPRTSTAVEVSPGEDMTHCSPQKTSPLTKITSGHLSQQDLESQMRELIYTDSDLVVTPIIDNPKIMKQPPVKFDAKILHLPTYSVDKLLFLKDQDWNDFLQQVCSQIDSTEKSMGASRAKLNLLCYLCVVAGHQEVATRLLHSPLFQLLIQHLRIAPNWDIRAKVAHVIGLLASHTAELQENTPVVEAIVLLTELIRENFRNSKLKQCLLPTLGELIYLVATQEEKKKNPRECWAVPLAAYTVLMRCLREGEERVVNHMAAKIIENVCTTFSAQSQGFITGEIGPILWYLFRHSTADSLRITAVSALCRITRHSPTAFQNVIEKVGLNSVINSLASAICKVQQYMLTLFAAMLSCGIHLQRLIQEKGFVSTIIRLLDSPSTCIRAKAFLVLLYILIYNREMLLLSCQARLVMYIERDSRKTTPGKEQQSGNEYLSKCLDLLICHIVQELPRILGDILNSLANVSGRKHPSTVQVKQLKLCLPLMPVVLHLVTSQVFRPQVVTEEFLFSYGTILSHIKSVDSGETNIDGAIGLTASEEFIKITLSAFEAIIQYPILLKDYRSTVVDYILPPLVSLVQSQNVEWRLFSLRLLSETTSLLVNQEFGDGKEKASVDSDSNLLALIRDVLLPQYEHILLEPDPVPAYALKLLVAMTEHNPEFERLVEESRLIPLIFEVTLEHQESILGNTMQSVIALLSNLVACKDSNMELLYEQGLVSHICNLLTETATLCLDVDNKNNNEMAAPLLFSLLDILHSMLTYTSGIVRLALQAQKSGSGEDPQAAEDLLLLNRPLTDLISLLIPLLPNEDPEIFDVSSKCLSILVQLYGGENPDSLSPENVEIFAHLLTSKEDPKEQKLLLRILRRMITSNEKHLESLKNAGSLLRALERLAPGSGSFADSAVAPLALEILQAVGH
